The test system of the data set is BcWRKY33A-GST. As to the kind of experiment: EMSA. The settings on record: Beyotime GS009 chemiluminescent EMSA kit, room temperature, 6% native gel, TGE buffer; salt and pH not stated; recombinant protein; protein details: GST (pGEX); label: biotin.

Construct, isoform or probe ends are uncertain for at least one entry.

“GAAAGAAATAAAGTCAAAAGTTACAGTAGA (double strand) [pBcLRP1 W-box probe]”: the binding result is recorded as “binds”.
Consider “GATATAATTCAAAATAGTCAAGGACCATGTCAATAT (double strand) [pBcCOW1 W-box probe]”, for which the binding result was “binds”.

The values above are taken from PMC11756305.
